Assay results published in patent US20050171015A1, “Methods and agents for enhancing bone formation or preventing bone loss” (priority 2003, published 2005).
Entries after “also recorded” stand apart in the source; their conditions may differ. For at least one compound, name, drawing or mass did not settle the structure.

Test system: Eμ-tTA/NFATc1nuc mice
Assay: Bone phenotype of Eμ-tTA/NFATc1nuc transgenic mice under doxycycline (transgene turned off)
Format: in vivo

C[C@H]1c2cccc(O)c2C(=O)C2=C(O)[C@]3(O)C(=O)C(C(N)=O)=C(O)[C@@H](N(C)C)[C@@H]3[C@@H](O)[C@@H]21 [doxycycline]
bone density (radiographs) (before and after 2, 4 and 8 weeks of doxycycline treatment, FIG. 1C): decreased bone density | development of the increased bone phenotype (doxycycline in drinking water, given throughout life, FIG. 2): prevents the bone phenotype from developing; also recorded: prevents increase in bone | increased bone phenotype in the long bones (doxycycline in drinking water, started at 6 weeks of age, FIG. 1c): reverses the phenotype
